From PMC12881681 (Molecular Pharmacology, 2025)

Test system: AOX1
Test: Risk ratio of clinical drug interaction (FDA guideline formula)
Design: species or system human
Conditions: kdeg 0.00033 min^–1 (average of 7 CYP enzymes); ratio ≥ 1.25 requires further investigation

| SMILES | risk ratio (kobs + kdeg) / kdeg |
| --- | --- |
| C#Cc1cccc(Nc2ncnc3cc(OCCOC)c(OCCO)cc23)c1 [O-Desmethylerlotinib, O-desmethylerlotinib] | 30–66 |
| C#Cc1cccc(Nc2ncnc3cc(OCCO)c(OCCO)cc23)c1 [O-Didesmethylerlotinib, O-didesmethylerlotinib] | 2.5–8.3 |
